# Assay results: article PMC5996148
# By UniProt entry, the sequences of proteins in these tests, tags left out.
# UniProt Q16143, whole entry: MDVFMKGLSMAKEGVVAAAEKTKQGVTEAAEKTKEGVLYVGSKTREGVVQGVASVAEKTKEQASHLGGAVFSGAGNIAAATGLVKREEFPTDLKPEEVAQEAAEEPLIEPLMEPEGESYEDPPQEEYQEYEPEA
# Several values for one entry are separate records, joined by “and”; a condition that tells them apart may be missing. Equal values may be shown once. Some of the results follow. For some assays here: The source does not settle which construct or isoform was used.
# How the values were obtained:
# Experiment in all cases: protein microarray (ProtoArray v5.0), streptavidin-Alexa Fluor 647
# Conditions in all cases: 3'-biotin; 20 mM Tris (pH 7.5), 5 mM MgCl2, 100 mM KCl, 0.1% Tween-20, A/T-rich and random oligonucleotide blockers; temperature not stated; high values mean tight binding
# SMAD1 (human) = system: SMAD1 (human)
# SMCP (human) = system: SMCP (human)
# SMPD3 (human) = system: SMPD3 (human)
# SMR3B (human) = system: SMR3B (human)
# SMUG1 (human) = system: SMUG1 (human)
# SNAPC5 = target: T1, SNAPC5 (UniProt O75971)
# T1 sequence: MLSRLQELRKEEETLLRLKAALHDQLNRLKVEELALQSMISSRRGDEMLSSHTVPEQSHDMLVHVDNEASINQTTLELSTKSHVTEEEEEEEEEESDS
# SNCA (human) = system: SNCA (human)
# SNCB = SNCB (UniProt Q16143)
# SNX19 (human) = system: SNX19 (human)
# SOD1 (human) = system: SOD1 (human)
# SPAG16 (human) = system: SPAG16 (human)
# SPAG6 (human) = system: SPAG6 (human)
# SPAG8 (human) = system: SPAG8 (human)
# SPAG9 (human) = system: SPAG9 (human)
# SPDEF (human) = system: SPDEF (human)
# SPG21 (human) = system: SPG21 (human)
# SPHK1 (human) = system: SPHK1 (human)
# SPRR4 = target: T2, SPRR4 (UniProt Q96PI1)
# T2 sequence: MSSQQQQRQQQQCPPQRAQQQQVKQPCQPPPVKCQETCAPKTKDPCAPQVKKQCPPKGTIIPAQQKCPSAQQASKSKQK
# SS18L2 = target: T3, SS18L2 (UniProt Q9UHA2)
# T3 sequence: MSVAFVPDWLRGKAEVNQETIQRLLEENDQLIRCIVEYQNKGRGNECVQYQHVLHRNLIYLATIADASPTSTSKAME
# SSBP3 (human) = system: SSBP3 (human)
sequence,measurement,setting,value
GGGGACAGGGGTATGGGGAGGGG [G4-3 biotinylated (CtG)],binding signal,SMAD1 (human),-0.331 z-score
same,binding signal,SMCP (human),-0.327 z-score
same,binding signal,SMPD3 (human),-0.319 z-score
same,binding signal,SMR3B (human),-0.314 z-score
same,binding signal,SMUG1 (human),-0.313 z-score
same,binding signal,SNAPC5,-0.331 z-score
same,binding signal,SNCA (human),-0.328 z-score
same,binding signal,SNCB,-0.342 z-score
same,binding signal,SNX19 (human),-0.321 z-score
same,binding signal,SOD1 (human),-0.334 z-score
same,binding signal,SPAG16 (human),-0.333 z-score
same,binding signal,SPAG6 (human),-0.319 z-score
same,binding signal,SPAG8 (human),-0.321 z-score
same,binding signal,SPAG9 (human),-0.309 z-score
same,binding signal,SPDEF (human),-0.331 z-score
same,binding signal,SPG21 (human),-0.342 z-score
same,binding signal,SPHK1 (human),-0.318 z-score
same,binding signal,SPRR4,5.25 z-score
same,binding signal,SS18L2,-0.336 z-score
same,binding signal,SSBP3 (human),-0.35 z-score and -0.346 z-score

# In a second layout: entries from further up
sequence | measurement | setting | value
GGGGACAGGGGTATGGGGAGGGG [G4-3 biotinylated (CtG)] | binding signal | SMAD1 (human) | -0.331 z-score
same | binding signal | SMCP (human) | -0.327 z-score
same | binding signal | SNX19 (human) | -0.321 z-score
same | binding signal | SPAG9 (human) | -0.309 z-score
same | binding signal | SPHK1 (human) | -0.318 z-score
